Patent publication US20070059829A1
No constants are given. Whether binding was seen depends on the method and setting. Binding seen in cells or lysates may run through a third protein. Some results given as binding are weak or reduced against the parent protein; the word gives no strength. Sequences can lack the tags named with a protein.

Protein sequences, listed by entry. Tags and fused reporters are not part of them. Residues count along the entry.
UniProt O75581, residues 20-1370: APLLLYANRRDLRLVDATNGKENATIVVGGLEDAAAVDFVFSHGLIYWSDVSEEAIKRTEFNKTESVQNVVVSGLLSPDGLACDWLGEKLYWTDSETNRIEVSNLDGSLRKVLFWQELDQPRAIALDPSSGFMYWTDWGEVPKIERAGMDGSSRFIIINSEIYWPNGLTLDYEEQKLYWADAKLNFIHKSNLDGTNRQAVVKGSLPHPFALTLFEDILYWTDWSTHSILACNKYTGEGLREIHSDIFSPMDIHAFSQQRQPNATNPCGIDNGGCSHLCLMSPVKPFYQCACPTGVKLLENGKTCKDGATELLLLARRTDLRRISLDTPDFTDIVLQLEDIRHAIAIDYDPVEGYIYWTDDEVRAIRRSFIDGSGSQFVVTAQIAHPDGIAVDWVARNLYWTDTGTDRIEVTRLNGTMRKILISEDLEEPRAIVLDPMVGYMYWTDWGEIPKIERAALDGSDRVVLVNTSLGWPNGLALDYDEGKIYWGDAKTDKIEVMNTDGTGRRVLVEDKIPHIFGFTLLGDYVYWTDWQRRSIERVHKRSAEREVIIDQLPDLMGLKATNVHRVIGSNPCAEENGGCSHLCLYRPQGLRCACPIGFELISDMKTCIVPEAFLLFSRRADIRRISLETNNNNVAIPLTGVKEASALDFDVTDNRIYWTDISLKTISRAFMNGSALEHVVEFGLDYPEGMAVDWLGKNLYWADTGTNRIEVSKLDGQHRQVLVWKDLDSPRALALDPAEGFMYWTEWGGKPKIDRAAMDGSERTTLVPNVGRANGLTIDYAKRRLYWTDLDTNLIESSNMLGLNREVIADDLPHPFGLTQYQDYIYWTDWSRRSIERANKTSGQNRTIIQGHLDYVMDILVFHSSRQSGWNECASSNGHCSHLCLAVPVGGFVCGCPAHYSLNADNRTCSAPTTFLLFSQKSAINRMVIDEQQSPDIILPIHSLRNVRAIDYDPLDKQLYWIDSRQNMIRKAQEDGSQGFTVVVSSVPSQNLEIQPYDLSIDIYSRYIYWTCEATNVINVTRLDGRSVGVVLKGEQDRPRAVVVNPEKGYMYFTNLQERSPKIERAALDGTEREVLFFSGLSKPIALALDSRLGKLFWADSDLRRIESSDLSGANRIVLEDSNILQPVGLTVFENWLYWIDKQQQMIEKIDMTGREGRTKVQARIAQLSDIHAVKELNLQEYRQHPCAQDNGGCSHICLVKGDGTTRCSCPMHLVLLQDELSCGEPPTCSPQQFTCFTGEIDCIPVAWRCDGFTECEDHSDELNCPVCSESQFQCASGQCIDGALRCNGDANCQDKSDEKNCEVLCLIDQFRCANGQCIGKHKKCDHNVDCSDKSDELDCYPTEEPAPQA

How the values were obtained:
[1] = molecular target: human immunoglobin Fc fusion form of the extracellular domain of human LRP6 (human) (UniProt O75581); experiment: co-transfection in 293T cells, co-immunoprecipitation, western blot
[2] = molecular target: T1, human immunoglobin Fc fusion form of the cysteine-rich domain (CRD) of mouse Fzd8 (mouse; human) (UniProt Q61091); experiment: as above
T1 sequence (looked up): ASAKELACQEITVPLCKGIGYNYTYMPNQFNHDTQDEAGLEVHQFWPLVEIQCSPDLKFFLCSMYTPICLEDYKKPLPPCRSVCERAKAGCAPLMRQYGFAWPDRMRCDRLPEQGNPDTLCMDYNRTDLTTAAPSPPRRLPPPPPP

[3] = molecular target: human immunoglobin Fc fusion form of the extracellular domain of human LRP6 (human) (UniProt O75581); experiment: co-immunoprecipitation from co-transfected cells (FIG. 6A legend)
[4] = molecular target: T1, human immunoglobin Fc fusion form of the cysteine-rich domain (CRD) of mouse Fzd8 (mouse; human); experiment: as above
[5] = molecular target: human immunoglobin Fc fusion form of the extracellular domain of human LRP6 (human) (UniProt O75581); experiment: cell-free pull-down (FIG. 6B legend)
[6] = molecular target: T1, human immunoglobin Fc fusion form of the cysteine-rich domain (CRD) of mouse Fzd8 (mouse; human); experiment: cell-free pull-down (FIG. 6B legend)
[7] = molecular target: human immunoglobin Fc fusion form of the extracellular domain of human LRP6 (human) (UniProt O75581); experiment: cell-free pull-down on protein A-sepharose beads, western blot
[8] = molecular target: T1, human immunoglobin Fc fusion form of the cysteine-rich domain (CRD) of mouse Fzd8 (mouse; human); experiment: as above

Measured: binding

B1: mouse R-spondin3 tagged with the HA epitope (ligand, not shown: small tags and cut ends)
chain: QNASRGRRQRRMHPNVSQGCQGGCATCSDYNGCLSCKPRLFFVLERIGMKQIGVCLSSCPSGYYGTRYPDINKCTKCKVDCDTCFNQNFCTKCKSGFYLHLGKCLDSCPEGLEANNHTMECVSIVHCEASEWSPWSPCMKKGKTCGFKRGTETRVRDILQHPSAKGNLCPPTSETRTCIVQRKKCSKGERGKKGRERKRKKLNKEERKETSSSSDSKGLESSIETPDQQENKERQQQQKRRARDKQQKSVSVSTVH
binds: [1] | [2] | [3] | [4]

B2: Histidine-tagged R-spondin3 protein (ligand, not shown: small tags and cut ends)
chain: B1 chain
binds: [5] | [6] | [7] | [8]
